# Data as given in PubChem BioAssay AID540256 (National Center for Advancing Translational Sciences (NCATS), 2011).
# About 3,700 (1.2%) of roughly 300,000 compounds were called active. Inconclusive results, whose numbers are uncertain, are shown with a selection of clear calls. Calls come from the whole dose curve; tested in HEK293 cells. A potency beside an inconclusive call is a rough fit, not a confirmed value.
# Experiment: qHTS for Inhibitors of binding or entry into cells for Lassa Virus; note: nearly all actives have a fitted effect of over 50% in size
# Conditions: Lassa virus pseudotype entry inhibition, cell reporter; activity change, negative = inhibition: at 37.9 µM (top of the series) unless noted
# % is set by controls: 0 for no effect and ±100 for the full control effect; potency is the fitted concentration of half-maximal effect.
Structure (SMILES),Potency,"activity change, negative = inhibition"
COCCCn1c(SCC(=O)Nc2ccccc2OC)nc2c(sc3ccccc32)c1=O,"inconclusive: 35.5 µM [inhibitor, single point]",
Cc1nc2ccccn2c1C(=O)NNS(=O)(=O)c1ccc(C(C)(C)C)cc1,"inconclusive: 8.91 µM [inhibitor, single point]",
COc1ccc(NC(=O)CSc2nc(-c3ccc(F)cc3)c3cccc(C)c3n2)cc1,,inactive: 23% [at 46.1 µM]
CC1(C)C(=O)N(CCN2CCC(C(=O)c3ccc(F)cc3)CC2)c2ccccc21,"inconclusive: 11.6 µM [inhibitor, partial curve, poor fit]",
CCN(Cc1ccccc1)S(=O)(=O)c1ccc(C(=O)N(CCCN(C)C)c2nc3ccc(F)cc3s2)cc1,"inconclusive: 35.5 µM [inhibitor, single point]",
CCOc1cc(S(=O)(=O)N2CC=C(c3ccc(F)cc3)CC2)c(OCC)cc1-n1cnnn1,,inactive: -27.4%
CN(C(=O)COC(=O)c1ccccc1C(=O)N(C)c1ccccc1)c1ccccc1,"inconclusive: 3.98 µM [inhibitor, single point]",
CC(=O)Nc1cccc(OCC(=O)NCCC2=CCCCC2)c1,"inconclusive: 28.2 µM [activator, single point]",
CCOC(=O)c1cc(-c2ccc(N3CCOCC3)cc2)nn1-c1ccccc1C(=O)O,,inactive: -12.9% [at 46.1 µM]
C=CCn1c(C)cc(C(=O)CSc2nnc(NC(C)C)s2)c1C,"inconclusive: 25.1 µM [inhibitor, single point]",
O=C(COC(=O)/C=C/c1ccc(C(F)(F)F)cc1)Nc1ccc2[nH]c(=O)[nH]c2c1,,inactive: 6.91%
CCOC(=O)C1CCCCN1Cc1ccc(C(F)(F)F)cc1 (centres undefined),,inactive: -27.5%
Cc1oc(-c2ccc(Cl)cc2)cc1C(=O)NC1CCN(Cc2ccccc2)CC1,"inconclusive: 22.4 µM [inhibitor, single point]",
COc1ccccc1N(C)S(=O)(=O)c1ccc(C(=O)Nc2nc(C)cs2)cc1,"inconclusive: 18.3 µM [inhibitor, single point]",
Cc1csc2ncnc(N3CCN(S(=O)(=O)c4cccc(C(F)(F)F)c4)CC3)c12,"inconclusive: 11.2 µM [inhibitor, partial curve, poor fit]",
CCCC(=O)N1CCc2cc(OC)c(OC)cc2C1c1cc2cc3c(cc2[nH]c1=O)OCO3 (centres undefined),,inactive: -19.4%
O=C(CSc1nnc(NC(=O)C2CC(=O)N(c3ccccc3)C2)s1)NC1CCCC1 (centres undefined),,inactive: 18%
O=C(NC(=S)Nc1ccc(N2CCCC2)cc1)c1ccc(F)cc1,"inconclusive: 1.26 µM [inhibitor, full curve]",
Cc1nnc(N/N=C/c2ccc(-c3ccccc3F)o2)n1N,"inconclusive: 31.6 µM [inhibitor, single point]",
O=C(O)Cc1ccc(NC(=O)c2ccc(NC(=O)C3CC3)cc2)cc1,,inactive: -19.8%
COc1ccc(-c2nc3c(-c4ccc(Cl)cc4)cnn3cc2C)cc1F,"inconclusive: 14.1 µM [inhibitor, partial curve, poor fit]",
CCc1ccc2c(c1)CCCN2C(=O)c1ccccc1C(=O)O,,inactive: -6.12%

# In another format: results already given
Structure (SMILES)	Potency	activity change, negative = inhibition
O=C(COC(=O)/C=C/c1ccc(C(F)(F)F)cc1)Nc1ccc2[nH]c(=O)[nH]c2c1		inactive: 6.91%
CCOC(=O)C1CCCCN1Cc1ccc(C(F)(F)F)cc1 (centres undefined)		inactive: -27.5%

# (list continues)

Structure (SMILES),Potency,"activity change, negative = inhibition"
Cc1cccc(C)c1OCC(=O)Nc1c(C(=O)c2ccc(Br)cc2)oc2ccccc12,,inactive: -16.5% [at 46.1 µM]
O=C(Nc1ccc(S(=O)(=O)N2CCCCC2)cc1)C1CCCCC1,"inconclusive: 10 µM [inhibitor, single point]",
Cc1ccc(-n2c(C)cc(C(=O)COC(=O)c3ccc[nH]c3=O)c2C)cc1,"inconclusive: 0.447 µM [activator, partial curve, poor fit]",
CCOc1cc2[nH]c(=O)n(CCCCC(=O)N3CCN(c4ccccc4)CC3)c(=O)c2cc1OCC,"inconclusive: 0.562 µM [inhibitor, full curve, poor fit]",
COc1cccc(/C=N/n2c(SC)nnc2-c2ccccc2)c1OC,active: 11.2 µM,
O=C(c1ccccc1)c1ccc(COC(=O)c2cnccn2)cc1,,inactive: 13.5%
CC(C)c1ccc(-n2cccc2/C=C2/C(=N)N3C=CSC3=NC2=O)cc1,"inconclusive: 14.1 µM [inhibitor, partial curve, poor fit]",
COc1cccc(-c2c(NC(=O)c3ccco3)n(-c3ccc(C)cc3)nc(C)c2=O)c1,,inactive: 3.68%
Cc1ccc2c(CN3CCC(C)CC3)cc(=O)oc2c1,"inconclusive: 3.26 µM [activator, single point]",
CCN(CC)c1ccc(NC(=O)Nc2ccccc2C(F)(F)F)cc1,"inconclusive: 10 µM [activator, partial curve, poor fit]",
CCn1c(=NC(=O)c2cccc(N3C(=O)CCC3=O)c2)sc2c(C)ccc(OC)c21,"inconclusive: 15.8 µM [inhibitor, single point]",
OC1C2(Cc3ccccc3)CN3CCN(C2)CC1(Cc1ccccc1)C3 (centres undefined),"inconclusive: 1.26 µM [inhibitor, single point]",
Cc1cc(C)n(CC(=O)O)n1,"inconclusive: 12.6 µM [activator, partial curve]",
Cc1ccc(O)c(-c2cc(C(=O)NCc3ccc4c(c3)OCO4)[nH]n2)c1,"inconclusive: 9.2 µM [inhibitor, partial curve]",
Cc1ccc(Nc2ncc(C(=O)N3CCN(c4cccc(Cl)c4)CC3)c3ccccc23)cc1Cl,,inactive: -12% [at 46.1 µM]
COc1ccc2c(c1)C1=NN(/C(C)=C/C(C)=O)C(c3cccc(F)c3)C1CC2 (centres undefined),,inactive: -4.62%
c1ccc(N2CCOCCOCCOCCOCCOCC2)cc1,"inconclusive: 3.16 µM [inhibitor, partial curve, poor fit]",
COc1cccc(NC(=O)CN(C)C(=O)Cn2c(=O)oc3ccccc32)c1,,inactive: -3.47%
COc1cc(C(=O)Nc2nnc(-c3sccc3C)s2)cc(OC)c1OC,"inconclusive: 12.6 µM [inhibitor, partial curve]",
CCN(CC)S(=O)(=O)c1cccc(C(=O)OCC(=O)N2CC(=O)Nc3ccccc32)c1,"inconclusive: 25.9 µM [inhibitor, single point]",
Cc1ccc(C(=O)Nc2ccc3ccccc3n2)cc1,"inconclusive: 6.31 µM [inhibitor, single point]",
O=C(CN1CCN(C2CCCCC2)CC1)Nc1ccccc1N1CCCCC1,"inconclusive: 16.4 µM [inhibitor, partial curve, poor fit]",
